Measured values from the supplement of paper PMC12819154, “High-throughput peptide-centric local stability assay extends protein–ligand identification to membrane proteins, tissues and bacteria” (Nature Structural & Molecular Biology, 2025).
Some of the results follow. Most values lie at the level of the controls, where differences are scatter.

Protein sequences, listed by entry. Tags and fused reporters are not part of them. Lines headed by an entry give the natural chain unless they say otherwise; changes in a name come on top.
UniProt Q3URS9: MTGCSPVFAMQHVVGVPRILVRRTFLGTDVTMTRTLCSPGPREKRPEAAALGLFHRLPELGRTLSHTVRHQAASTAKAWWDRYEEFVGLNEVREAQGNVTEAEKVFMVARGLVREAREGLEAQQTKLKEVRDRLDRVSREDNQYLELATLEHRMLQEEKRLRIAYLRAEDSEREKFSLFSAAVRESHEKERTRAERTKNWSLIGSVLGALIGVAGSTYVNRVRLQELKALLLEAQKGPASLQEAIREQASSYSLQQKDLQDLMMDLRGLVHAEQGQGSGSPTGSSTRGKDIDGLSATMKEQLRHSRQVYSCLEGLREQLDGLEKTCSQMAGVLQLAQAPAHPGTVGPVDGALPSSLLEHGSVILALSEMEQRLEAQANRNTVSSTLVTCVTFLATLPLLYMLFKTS
UniProt Q505F1: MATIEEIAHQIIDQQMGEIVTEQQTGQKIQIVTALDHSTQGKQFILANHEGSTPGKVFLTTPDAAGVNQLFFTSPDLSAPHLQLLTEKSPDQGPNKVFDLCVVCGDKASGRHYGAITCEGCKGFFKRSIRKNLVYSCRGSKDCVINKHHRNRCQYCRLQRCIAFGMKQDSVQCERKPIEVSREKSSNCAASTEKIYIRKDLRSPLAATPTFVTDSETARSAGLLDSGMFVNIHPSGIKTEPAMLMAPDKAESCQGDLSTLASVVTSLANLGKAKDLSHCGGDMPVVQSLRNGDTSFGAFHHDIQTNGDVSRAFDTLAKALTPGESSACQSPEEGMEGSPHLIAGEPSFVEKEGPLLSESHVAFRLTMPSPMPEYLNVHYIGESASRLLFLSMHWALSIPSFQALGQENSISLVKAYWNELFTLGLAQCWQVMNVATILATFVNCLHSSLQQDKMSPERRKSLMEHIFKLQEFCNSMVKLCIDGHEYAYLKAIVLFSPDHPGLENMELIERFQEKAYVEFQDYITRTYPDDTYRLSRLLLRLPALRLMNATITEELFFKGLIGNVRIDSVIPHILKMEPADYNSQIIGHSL
UniProt Q3UBG2: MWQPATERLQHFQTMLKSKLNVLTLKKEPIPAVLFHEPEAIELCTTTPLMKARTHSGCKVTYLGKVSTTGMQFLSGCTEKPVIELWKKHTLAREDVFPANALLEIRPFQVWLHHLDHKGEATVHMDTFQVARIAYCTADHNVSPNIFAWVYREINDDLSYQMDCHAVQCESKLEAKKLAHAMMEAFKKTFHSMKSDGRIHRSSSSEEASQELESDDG
UniProt Q4VA53: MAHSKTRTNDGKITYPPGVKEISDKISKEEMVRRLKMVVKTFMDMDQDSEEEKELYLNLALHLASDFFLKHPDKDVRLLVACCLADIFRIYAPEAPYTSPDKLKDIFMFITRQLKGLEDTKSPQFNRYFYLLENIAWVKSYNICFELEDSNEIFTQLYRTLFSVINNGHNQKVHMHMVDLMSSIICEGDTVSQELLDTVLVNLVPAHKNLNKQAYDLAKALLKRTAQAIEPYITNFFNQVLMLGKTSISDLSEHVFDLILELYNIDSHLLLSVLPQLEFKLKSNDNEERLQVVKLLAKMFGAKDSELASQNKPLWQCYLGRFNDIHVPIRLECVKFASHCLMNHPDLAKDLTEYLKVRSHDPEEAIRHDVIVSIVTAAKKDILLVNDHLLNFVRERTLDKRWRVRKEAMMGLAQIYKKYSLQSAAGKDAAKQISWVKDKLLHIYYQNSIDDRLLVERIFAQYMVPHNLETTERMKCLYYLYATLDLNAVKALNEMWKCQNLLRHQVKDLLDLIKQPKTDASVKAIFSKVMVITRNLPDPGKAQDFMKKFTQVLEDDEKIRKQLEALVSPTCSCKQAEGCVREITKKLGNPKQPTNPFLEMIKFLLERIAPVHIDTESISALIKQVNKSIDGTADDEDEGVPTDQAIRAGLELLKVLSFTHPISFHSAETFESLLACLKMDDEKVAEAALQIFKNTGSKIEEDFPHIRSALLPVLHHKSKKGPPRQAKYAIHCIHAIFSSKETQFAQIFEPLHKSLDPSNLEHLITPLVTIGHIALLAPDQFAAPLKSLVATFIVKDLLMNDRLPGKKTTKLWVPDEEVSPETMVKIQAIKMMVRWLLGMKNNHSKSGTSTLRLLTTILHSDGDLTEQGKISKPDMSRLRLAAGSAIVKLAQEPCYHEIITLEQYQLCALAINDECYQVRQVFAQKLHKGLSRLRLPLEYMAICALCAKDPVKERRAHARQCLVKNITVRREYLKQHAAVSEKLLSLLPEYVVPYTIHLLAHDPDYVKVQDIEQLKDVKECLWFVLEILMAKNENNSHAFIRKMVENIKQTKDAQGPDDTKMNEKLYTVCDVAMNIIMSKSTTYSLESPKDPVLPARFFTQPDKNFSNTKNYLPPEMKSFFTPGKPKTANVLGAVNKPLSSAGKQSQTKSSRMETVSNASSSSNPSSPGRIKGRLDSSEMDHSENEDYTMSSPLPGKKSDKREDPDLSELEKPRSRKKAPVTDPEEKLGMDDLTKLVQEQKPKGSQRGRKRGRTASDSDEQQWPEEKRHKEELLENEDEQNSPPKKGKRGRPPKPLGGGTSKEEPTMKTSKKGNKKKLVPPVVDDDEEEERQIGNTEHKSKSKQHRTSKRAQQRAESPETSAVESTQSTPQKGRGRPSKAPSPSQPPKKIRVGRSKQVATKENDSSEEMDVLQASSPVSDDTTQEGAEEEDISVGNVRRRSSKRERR
UniProt Q3UUI3: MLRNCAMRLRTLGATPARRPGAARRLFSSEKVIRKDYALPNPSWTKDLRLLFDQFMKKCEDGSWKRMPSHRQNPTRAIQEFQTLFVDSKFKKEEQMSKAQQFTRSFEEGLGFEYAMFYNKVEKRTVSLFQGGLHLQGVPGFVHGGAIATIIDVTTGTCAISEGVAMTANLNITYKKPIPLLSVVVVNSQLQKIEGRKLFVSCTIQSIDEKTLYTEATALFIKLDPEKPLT
UniProt Q3UTJ2: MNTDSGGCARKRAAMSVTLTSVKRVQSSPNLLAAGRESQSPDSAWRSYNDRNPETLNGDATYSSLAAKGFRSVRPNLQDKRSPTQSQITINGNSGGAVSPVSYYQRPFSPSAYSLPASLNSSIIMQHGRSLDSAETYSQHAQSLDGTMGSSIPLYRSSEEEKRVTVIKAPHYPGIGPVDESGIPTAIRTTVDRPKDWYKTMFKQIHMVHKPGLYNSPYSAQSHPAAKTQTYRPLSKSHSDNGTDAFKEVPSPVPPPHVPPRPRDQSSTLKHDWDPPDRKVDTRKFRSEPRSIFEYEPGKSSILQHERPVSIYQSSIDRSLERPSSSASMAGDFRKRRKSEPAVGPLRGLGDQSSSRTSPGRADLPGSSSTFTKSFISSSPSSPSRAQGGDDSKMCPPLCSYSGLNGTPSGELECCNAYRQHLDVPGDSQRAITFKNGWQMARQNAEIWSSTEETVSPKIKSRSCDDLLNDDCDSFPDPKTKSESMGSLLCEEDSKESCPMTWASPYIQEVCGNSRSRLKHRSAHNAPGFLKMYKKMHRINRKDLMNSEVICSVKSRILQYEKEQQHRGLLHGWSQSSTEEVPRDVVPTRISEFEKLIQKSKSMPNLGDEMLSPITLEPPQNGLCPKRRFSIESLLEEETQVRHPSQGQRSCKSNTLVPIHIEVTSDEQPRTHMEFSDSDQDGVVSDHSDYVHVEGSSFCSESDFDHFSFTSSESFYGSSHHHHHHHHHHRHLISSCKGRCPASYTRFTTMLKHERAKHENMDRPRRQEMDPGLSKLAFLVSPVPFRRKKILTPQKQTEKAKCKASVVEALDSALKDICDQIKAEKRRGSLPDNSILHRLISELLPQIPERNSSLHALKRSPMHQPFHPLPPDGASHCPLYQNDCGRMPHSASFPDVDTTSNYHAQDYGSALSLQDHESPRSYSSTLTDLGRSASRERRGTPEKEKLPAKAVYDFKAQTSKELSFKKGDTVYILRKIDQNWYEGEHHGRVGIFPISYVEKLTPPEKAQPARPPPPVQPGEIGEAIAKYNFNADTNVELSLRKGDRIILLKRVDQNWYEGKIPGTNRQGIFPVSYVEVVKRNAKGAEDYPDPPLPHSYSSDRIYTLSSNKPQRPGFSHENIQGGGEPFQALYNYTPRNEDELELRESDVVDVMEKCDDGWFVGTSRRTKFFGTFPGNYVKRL
UniProt Q4LDD4: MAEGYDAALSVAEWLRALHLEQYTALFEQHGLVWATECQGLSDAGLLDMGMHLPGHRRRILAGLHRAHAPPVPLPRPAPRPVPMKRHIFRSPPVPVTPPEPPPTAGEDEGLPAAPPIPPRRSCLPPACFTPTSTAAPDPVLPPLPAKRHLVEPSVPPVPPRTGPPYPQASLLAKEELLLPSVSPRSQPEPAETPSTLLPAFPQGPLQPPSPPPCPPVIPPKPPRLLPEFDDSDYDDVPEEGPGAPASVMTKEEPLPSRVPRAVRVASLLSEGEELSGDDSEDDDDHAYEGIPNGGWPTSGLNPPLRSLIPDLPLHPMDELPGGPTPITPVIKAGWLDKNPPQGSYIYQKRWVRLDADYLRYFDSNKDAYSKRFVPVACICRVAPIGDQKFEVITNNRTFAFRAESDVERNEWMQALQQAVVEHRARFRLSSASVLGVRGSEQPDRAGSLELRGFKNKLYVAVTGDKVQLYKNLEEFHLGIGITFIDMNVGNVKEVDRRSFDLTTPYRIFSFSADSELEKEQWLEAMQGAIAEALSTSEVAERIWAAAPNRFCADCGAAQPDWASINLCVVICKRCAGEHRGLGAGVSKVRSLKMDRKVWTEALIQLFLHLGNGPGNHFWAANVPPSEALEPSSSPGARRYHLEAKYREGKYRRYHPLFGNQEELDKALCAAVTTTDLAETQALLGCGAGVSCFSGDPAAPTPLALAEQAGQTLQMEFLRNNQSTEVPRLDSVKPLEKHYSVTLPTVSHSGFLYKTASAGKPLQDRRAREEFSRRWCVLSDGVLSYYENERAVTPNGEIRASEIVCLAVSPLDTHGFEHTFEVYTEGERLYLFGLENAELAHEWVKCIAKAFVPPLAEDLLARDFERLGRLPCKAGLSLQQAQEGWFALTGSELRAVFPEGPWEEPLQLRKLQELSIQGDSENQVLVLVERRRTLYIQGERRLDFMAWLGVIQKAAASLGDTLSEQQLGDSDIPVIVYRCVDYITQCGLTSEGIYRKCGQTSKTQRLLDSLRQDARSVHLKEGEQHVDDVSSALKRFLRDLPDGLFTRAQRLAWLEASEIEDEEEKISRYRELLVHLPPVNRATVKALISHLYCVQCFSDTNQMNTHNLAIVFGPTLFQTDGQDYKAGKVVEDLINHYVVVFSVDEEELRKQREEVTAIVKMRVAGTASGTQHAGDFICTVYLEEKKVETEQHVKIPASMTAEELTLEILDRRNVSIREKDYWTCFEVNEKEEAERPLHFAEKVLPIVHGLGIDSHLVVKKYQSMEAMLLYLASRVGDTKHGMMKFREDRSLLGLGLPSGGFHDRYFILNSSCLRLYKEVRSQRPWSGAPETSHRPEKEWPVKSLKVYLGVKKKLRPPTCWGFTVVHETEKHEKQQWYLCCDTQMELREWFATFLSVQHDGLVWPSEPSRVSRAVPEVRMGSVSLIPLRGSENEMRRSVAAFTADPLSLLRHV
UniProt Q499E6: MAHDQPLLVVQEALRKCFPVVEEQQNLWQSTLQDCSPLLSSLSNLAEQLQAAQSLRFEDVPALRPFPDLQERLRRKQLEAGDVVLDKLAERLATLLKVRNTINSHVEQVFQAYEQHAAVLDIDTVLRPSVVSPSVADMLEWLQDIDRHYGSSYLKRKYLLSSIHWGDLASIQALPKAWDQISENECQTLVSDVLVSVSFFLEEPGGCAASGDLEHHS
UniProt Q3U3W5: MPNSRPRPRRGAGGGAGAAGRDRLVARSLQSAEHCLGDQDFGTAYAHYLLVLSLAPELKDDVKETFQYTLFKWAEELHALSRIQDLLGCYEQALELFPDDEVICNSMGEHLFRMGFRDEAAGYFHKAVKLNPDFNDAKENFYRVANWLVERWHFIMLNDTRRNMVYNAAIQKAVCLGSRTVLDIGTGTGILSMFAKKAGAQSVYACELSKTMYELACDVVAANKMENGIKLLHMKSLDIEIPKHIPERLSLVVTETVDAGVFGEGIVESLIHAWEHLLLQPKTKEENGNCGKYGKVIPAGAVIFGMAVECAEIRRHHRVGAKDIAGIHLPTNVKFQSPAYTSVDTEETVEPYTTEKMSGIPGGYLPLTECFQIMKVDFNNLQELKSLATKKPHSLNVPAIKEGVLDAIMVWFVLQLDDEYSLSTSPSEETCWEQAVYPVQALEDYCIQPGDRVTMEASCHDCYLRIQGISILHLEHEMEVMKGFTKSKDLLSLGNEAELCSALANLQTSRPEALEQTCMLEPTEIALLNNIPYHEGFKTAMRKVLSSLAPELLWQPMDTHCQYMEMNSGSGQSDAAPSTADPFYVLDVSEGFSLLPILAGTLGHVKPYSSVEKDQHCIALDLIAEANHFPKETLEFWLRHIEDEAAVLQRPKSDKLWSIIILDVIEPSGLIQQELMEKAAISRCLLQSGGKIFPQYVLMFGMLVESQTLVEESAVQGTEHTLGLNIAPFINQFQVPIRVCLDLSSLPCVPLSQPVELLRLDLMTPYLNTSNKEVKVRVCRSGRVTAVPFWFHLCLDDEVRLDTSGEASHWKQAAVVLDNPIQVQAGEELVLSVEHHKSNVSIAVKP

Compound: CN[C@@H]1C[C@H]2O[C@@](C)([C@@H]1OC)n1c3ccccc3c3c4c(c5c6ccccc6n2c5c31)C(=O)NC4 [staurosporine]
Assay: log2 fold change of tryptic peptide abundance, ligand vs vehicle (limited proteolysis) (log2 ratio); higher = more trypsin-susceptible (destabilized)
Details: ligand concentration: 20 uM; sample: mouse liver crude lysate; replicate design: treated separately

Target	log2 fold change
UniProt Q3URS9 (peptide sequence: EKRPEAAALGLFHR, peptide start residue: 43)	0.418
UniProt Q3UGP9 (peptide sequence: SLSLHNNLLTYLPR, peptide start residue: 211)	0.213
UniProt Q3USB7 (peptide sequence: KTVSFSSMPSEKK, peptide start residue: 93)	0.209
UniProt Q505F1 (peptide sequence: EGPLLSESHVAFR, peptide start residue: 352)	0.383
UniProt Q3UMM4 (peptide sequence: IGEGTYGIVYR, peptide start residue: 45)	-0.49
UniProt Q3UIW5 (peptide sequence: RDEVAEAQR, peptide start residue: 116)	-0.755
UniProt Q3UBG2 (peptide sequence: LAHAMMEAFKK, peptide start residue: 178)	0.784
UniProt Q3UHC7 (peptide sequence: LVLEYQAR, peptide start residue: 1073)	-0.231
UniProt Q3V3Q7 (peptide sequence: IAVAGAQHYLSAILR, peptide start residue: 522)	0.33
UniProt Q4VA53 (peptide sequence: KAPVTDPEEKLGMDDLTK, peptide start residue: 1217)	0.493
UniProt Q3UH68 (peptide sequence: FTISEAVLER, peptide start residue: 450)	-0.327
UniProt Q4VBD9 (peptide sequence: HVLQVHEGGGER, peptide start residue: 393)	1.1
UniProt Q3V384 (peptide sequence: ALAVCHGPLDHYDFLIK, peptide start residue: 68)	0.194
UniProt Q5DTU0 (peptide sequence: YTEEKER, peptide start residue: 673)	-0.607
UniProt Q4JIM5 (peptide sequence: ISADKISK, peptide start residue: 1079)	-0.826
UniProt Q3UUI3 (peptide sequence: KCEDGSWK, peptide start residue: 58)	-0.478
UniProt Q3UFS0 (peptide sequence: VSGEANETQIAEALRR, peptide start residue: 318)	0.222
UniProt Q3UEI1 (peptide sequence: VREPVDSGVAPVSPLGGGVILRR, peptide start residue: 16)	-0.426
UniProt Q504N7 (peptide sequence: VKIADLMEDKFPK, peptide start residue: 45)	-0.546

Random excerpt: 3 records from the list, in no set order.
Target	log2 fold change
UniProt Q3V3Q7 (peptide sequence: IAVAGAQHYLSAILR, peptide start residue: 522)	0.33
UniProt Q3UIW5 (peptide sequence: RDEVAEAQR, peptide start residue: 116)	-0.755
UniProt Q3URS9 (peptide sequence: EKRPEAAALGLFHR, peptide start residue: 43)	0.418

Carrying on.

Target	log2 fold change
UniProt Q3U5F4 (peptide sequence: SGWTEALR, peptide start residue: 65)	-0.101
UniProt Q3UCQ1 (peptide sequence: VKVEPVPAISPATLGAASR, peptide start residue: 517)	0.45
UniProt Q3UMC0 (peptide sequence: GVLLYGPPGCSK, peptide start residue: 663)	-0.306
UniProt Q3V3R1 (peptide sequence: KITIGQGSTEK, peptide start residue: 585)	-0.352
UniProt Q3UHC0 (peptide sequence: QPPPPPPPPHLSLHPSAGK, peptide start residue: 1214)	0.671
UniProt Q570Y9 (peptide sequence: RPVTSEELLTPGAPYAR, peptide start residue: 312)	-0.237
UniProt Q3UTJ2 (peptide sequence: GAEDYPDPPLPHSYSSDR, peptide start residue: 1083)	-0.211
UniProt Q3UPL5 (peptide sequence: KSFLQSLECLRR, peptide start residue: 205)	0.19
UniProt Q3UG98 (peptide sequence: KAEPVTATLSEQK, peptide start residue: 202)	-0.105
UniProt Q4LDD4 (peptide sequence: TGPPYPQASLLAK, peptide start residue: 162)	0.692
UniProt Q4QRL3 (peptide sequence: RTEAEAHQEAEAQAR, peptide start residue: 779)	1
UniProt Q499E6 (peptide sequence: FEDVPALRPFPDLQER, peptide start residue: 57)	-0.125
UniProt Q3UVK0 (peptide sequence: EASAQEDAK, peptide start residue: 32)	-0.237
UniProt Q5DTJ9 (peptide sequence: NEAGIVSCTAR, peptide start residue: 1337)	-0.258
UniProt Q5DTI6 (peptide sequence: NALLDKFTDTK, peptide start residue: 178)	0.0954
UniProt Q3V1V3 (peptide sequence: LNYAVDKR, peptide start residue: 49)	-0.227
UniProt Q3U3W5 (peptide sequence: LNPDFNDAKENFYR, peptide start residue: 130)	-0.33
UniProt Q3UMY5 (peptide sequence: HKDVIVNQAK, peptide start residue: 215)	-0.682
